This passage reports binding results from publication PMC9859756.

No constants are given. Whether binding was seen depends on the method and setting. In cells and extracts the contact can be indirect. Some results given as binding are weak or reduced against the parent protein; the word gives no strength.

This assay deals with T1, human ZBP1 (transient expression, Extended Data Fig. 2c) (human) (UniProt Q9H171).
T1 sequence: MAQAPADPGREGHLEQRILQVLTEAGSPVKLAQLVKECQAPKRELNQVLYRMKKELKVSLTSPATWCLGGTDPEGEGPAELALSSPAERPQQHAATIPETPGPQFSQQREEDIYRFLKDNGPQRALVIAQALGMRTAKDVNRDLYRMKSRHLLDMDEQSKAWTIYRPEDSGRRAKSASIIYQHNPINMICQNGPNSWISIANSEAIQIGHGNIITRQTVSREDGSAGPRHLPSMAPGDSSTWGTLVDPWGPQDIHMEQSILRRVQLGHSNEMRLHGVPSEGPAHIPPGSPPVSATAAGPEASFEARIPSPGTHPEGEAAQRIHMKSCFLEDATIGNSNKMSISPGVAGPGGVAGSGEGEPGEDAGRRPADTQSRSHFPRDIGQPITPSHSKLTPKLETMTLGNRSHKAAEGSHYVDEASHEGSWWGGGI
Description: co-IP; HEK 293T cells transfected with the indicated FLAG or untagged constructs; lysates immunoprecipitated with anti-FLAG antibody, immunoblot (Extended Data Fig. 2c).

B1: human OASL (transient expression, Extended Data Fig. 2c) (protein, UniProt Q15646 1-514)
chain: MALMQELYSTPASRLDSFVAQWLQPHREWKEEVLDAVRTVEEFLRQEHFQGKRGLDQDVRVLKVVKVGSFGNGTVLRSTREVELVAFLSCFHSFQEAAKHHKDVLRLIWKTMWQSQDLLDLGLEDLRMEQRVPDALVFTIQTRGTAEPITVTIVPAYRALGPSLPNSQPPPEVYVSLIKACGGPGNFCPSFSELQRNFVKHRPTKLKSLLRLVKHWYQQYVKARSPRANLPPLYALELLTIYAWEMGTEEDENFMLDEGFTTVMDLLLEYEVICIYWTKYYTLHNAIIEDCVRKQLKKERPIILDPADPTLNVAEGYRWDIVAQRASQCLKQDCCYDNRENPISSWNVKRARDIHLTVEQRGYPDFNLIVNPYEPIRKVKEKIRRTRGYSGLQRLSFQVPGSERQLLSSRCSLAKYGIFSHTHIYLLETIPSEIQVFVKNPDGGSYAYAINPNSFILGLKQQIEDQQGLPKKQQQLEFQGQVLQDWLGLGIYGIQDSDTLILSKKKGEALFPAS
For B1, the binding result was “binds”.
